In PubChem BioAssay AID1508600 (Functional Genomics Laboratory (NCATS/FGL), 2020):
In all, about 53,000 sequences went through this assay and about 3,700 (7%) were called active.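 The calls were made as follows: active = gene knockdowns whose robust z-score for IL-1 alpha signal is at least 2 or at most -2, so actives lie on both sides; inactive = the rest.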 The list shows a part of the results.

Test: Components of the Cytosolic LPS Sensing Pathway: Gene Identification via Genome-wide siRNA Screen;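 also: robust z of the log signal after scaling to non-targeting control siRNA wells of the plate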
Details: RAW264.7 macrophages, IL-1a HTRF, actives lie on both sides, screened at 100 nM (by protocol), cells primed 5 h with Pam3CSK4 first
In short: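 RAW264.7 mouse macrophages reverse-transfected with single siRNAs (100 nM final) for 48h, primed with Pam3CSK4 for 5 hours, then transfected with LipidA for 24 hour. Supernatant IL-1a read by HTRF; values normalized to negative-control median, log-transformed robust z-scores.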

Sequence | z-score
GGAUAGAGAUUCCAAACAUTT against Rxfp2 | inactive: -0.969
CCACAGUACGCUGAAAUCCTT against Morf4l1 | active: -2.27
GCAUUGGAACCAUGUGCUGTT against Prss46 | inactive: -1.59
GGCAUACAAGAAGUGUCUATT against Snta1 | inactive: -1.19
GGAACUUAACUUACACAUGTT against Nr2f1 | inactive: 0.616
CGAUCGAUGUUAAAUGUAGTT against Nppa | inactive: -0.805
GGUUCCUAUACCCAACGGUTT against Mrgpra7 | inactive: -1.07
GGUGCUAGUGGUGACCAUGTT against Pign | active: 2.2
GCAAAAGAGUUGGAGUUAGTT against Pcnt | inactive: 0.649
GCAUCAUCUGAUCUGCACGTT against Nkx2-9 | inactive: -0.969
GGAGAAAGAGAUCACCAUCTT against Slc8a2 | inactive: -0.0135
GGCCUUUCACAAAUUAGCCTT against Dnajb9 | inactive: 0.864
GGUGUUCUUACCUUUUGACTT against Il9r | inactive: -0.128
GGUGCUGGACGAAAUUGUATT against Arhgdig | inactive: 1.36
GGAGAGUGCUGAUGUUCUGTT against Rhox6 | active: 2.26
GGGAGGCAUAGUCAAAUUGTT against Ccdc87 | inactive: -0.62
GGCUAAUGCUCCUUCAUGUTT against Myo18a | inactive: -0.439
GGUAUUCGUGGUGAUGGAGTT against Prkd2 | inactive: 1.35
CCAGCAAAGACAAGUCUCCTT against Hoxb9 | inactive: 1.79
GGACUGAGAAAAUCUUCCGTT against Hpca | inactive: -0.385
GGAAUGUAACUGAAAGACUTT against Myo1c | inactive: 0.486
GGGAUCCACAAAUAAAAGATT against Klk4 | inactive: 0.182

Sequence | z-score
GGUAAAUACUGUUUCUUAGTT against Lsm14a | inactive: 0.823
GCACUAGAAGUGUCUUUUCTT against Cdhr1 | active: 2.17
GGGAAAUGCUGAUUCUCGATT against Spink12 | inactive: 0.614
GGUUGACUUAAAUGUCAGGTT against Rxrb | inactive: -0.419
GCCACAUUGCUUAUGGCUGTT against Yipf7 | inactive: 1.46
CCUGGAAUGUAUUUGUUAUTT against Nkain2 | inactive: 0.0256
GGAACGAGAAGAAGAAGAATT against Acin1 | inactive: 0.169
GGACCUGCCCAAAUCUGAUTT against Fbxo40 | inactive: 0.307
GGCCAUCGAUUUUGAAUACTT against Isy1 | inactive: -0.284
GGUAAAGCUGAAGACAAGGTT against Rps2 | inactive: 0.745
AACAACUGAGCAAAUCCACTT against Alyref | inactive: -0.569
CGGGUAUCAUCGAUUAUGGTT against Tnfaip6 | inactive: -0.356
GGCAUUUUGAGACUCUACUTT against Crygb | inactive: 1.05
GGUCAGCGUGGAGUCAAUATT against Fam184b | inactive: -1.92
GGUAAGAACUGAAAUGCAUTT against Irf4 | inactive: -0.108
GGGAUUCCACGGAUACUGUTT against Rnase13 | inactive: -0.858
GGGAAUGCAGCUAGGAAGATT against Paics | inactive: 1.41
CCAGUCACAUGAUCUUCGATT against Car10 | inactive: -0.892
GCUUGUGGCCAUAGCAGUUTT against Tmx3 | inactive: -1.36
CCUCUACAUCCAGGAAUGATT against Map4k1 | inactive: -0.546
GGUUUACGCAGACUCAAGUTT against Trim14 | inactive: -0.183
GGUAUGCCGCUAUCUGUCATT against Olfr99 | inactive: -0.86

Sequence | z-score
GCCAGUGGAAAAUUGACGUTT against Baz2b | inactive: 1.49
GGAUUCUGAAUAUUUGCCATT against Glipr2 | inactive: 0.378
GCCGUUAAGUACUUAUAAATT against Agpat5 | inactive: 0.437
GGACCUCCAGAGCAUACUGTT against Plscr2 | inactive: 1.55
GGGCCACUGUGUAAUUCAATT against Pcdhgc5 | inactive: 1.67
GGCUACCAAGCUCCUCUAUTT against Zfyve21 | inactive: -1.49
GGAUGUUCCAUAUGUGCUGTT against Arhgap31 | inactive: -0.011
GGCUGUCCACCGUAUGUAATT against Gpn1 | inactive: -0.736
GGUCCUCAUCGAAUUACACTT against Trip10 | inactive: -1.14
GGCUGACAUAACAUUAAAATT against Bves | inactive: -1.06
GGUCAAGAGUGCCCUAAAATT against Olfr398 | inactive: -1.63
GGAUCUUUUGAGAAAGAACTT against Adgrb3 | inactive: -0.399
GGGAGCAACCGGACAAUAUTT against Spa17 | inactive: -1.86
GGAAAACACGUUCACUAUATT against Elp2 | inactive: 0.021
CCACAAAGGAAUUCAUGAGTT against Dhx16 | inactive: -1.41
GGAUAUCUUCUCCUAUUUUTT against Ncbp3 | inactive: 0.387
GCCACACGACAUGUGAUUCTT against C2cd4c | inactive: -0.0403
GGGUGAACUCGGAUUGCCUTT against Col23a1 | inactive: 1.23
CGAUCUGUGAUUGAACCACTT against Pak1 | inactive: -0.0456
GGAAAUAACAAGUUUUCCATT against Exog | inactive: 1.49
GGGAAAGCAUCGUAGACUCTT against Eid2 | inactive: 0.0738
GGACCACUCCAAGAGUUCUTT against Ncapd3 | active: 2.88

In a second layout: entries from further up.

| Sequence | z-score |
| --- | --- |
| GGUAAAGCUGAAGACAAGGTT against Rps2 | inactive: 0.745 |
| GGUCAGCGUGGAGUCAAUATT against Fam184b | inactive: -1.92 |
| GGAUGUUCCAUAUGUGCUGTT against Arhgap31 | inactive: -0.011 |
| GGAUCUUUUGAGAAAGAACTT against Adgrb3 | inactive: -0.399 |
| GGGUGAACUCGGAUUGCCUTT against Col23a1 | inactive: 1.23 |

Later entries.

Sequence | z-score
GGUUGGAUUCUCUUUGUCATT against Rbm8a | inactive: -1.95
GGUGACUUGUAAAGAUUUUTT against Dstn | inactive: 0.234
UCCUUACAUACGAUGUGAATT against Rab20 | inactive: -0.872
GCUUCGAAACGGCCACAAGTT against Grb7 | inactive: 1.07
GCUACUGGUCAAUCUGUUCTT against Ifna2 | inactive: 0.876
GGAUGUCUUCAGCUUCAGGTT against Olfr992 | inactive: 1.48
GCGGAAGCGUGAAUCCAAATT against Tigd3 | active: 3.13
GGAGGAUCGGAAAAAAGCUTT against Ccdc9 | inactive: -0.938
GGACUUUGACUUAUCAAAUTT against Kctd11 | inactive: 1.31
GCCUAUGUUAAAAUACUGGTT against Scgb2b27 | inactive: 0.538
GGAGAAAAAAGCUAUGACUTT against Zfp120 | inactive: -0.0683
CGCAGGAACACCGAUGUAUTT against Agpat5 | inactive: -1.15
GGAACAGAAACUGAAGGAUTT against Clip2 | inactive: 1.17
GGUGAAGAGAGGUUUUUUUTT against St8sia2 | inactive: 1.12
GCUUUGUCACUACCACUGUTT against Olfr1329 | inactive: 0.256
CGACUUUAAUCAGAGGGCATT against Slc16a3 | inactive: 0.834
GCCAGGAUACUAAGUGUUUTT against Jpt2 | inactive: 1.05
GGACAUUUGAUGACAGUGCTT against Thbd | inactive: -1.43
CGCGUCUGUGAAGACCUGUTT against P2rx4 | inactive: -1.24
GGUGGUUCUGGUGUACAGUTT against Nxf1 | inactive: -1.98
GCAAGCAUGCUCAUAAAGATT against Cast | inactive: -0.142
CGCAAACAAACCUUAACAGTT against Maneal | active: 2.21

Sequence | z-score
GGAAACCUGAUAGAAGAGCTT against Dctn6 | inactive: 0.967
GCUGAGAAGUGGUAUCUAATT against Lztfl1 | inactive: -0.33
GGAUCUAUUCUCUCUGAUGTT against Prune2 | inactive: 1.03
GGAGUGUAAGGAAUUUAGCTT against Eid3 | inactive: 0.171
GGCCAGCAGAUGAAUACGATT against Shd | inactive: -1.2
GGCGAAAUGGUAAACCGAGTT against Adgrg2 | inactive: 0.0183
GCCUGUAUAGAUGCUAUUCTT against Setd1a | inactive: -0.894
GGAACUAUGGAGAUGGGACTT against Tcf4 | inactive: -0.695
GCUCAAGUGCUCGAAUGACTT against Vps11 | inactive: -1.48
CCACCUAAGCCUACAAUGATT against Papolb | inactive: 0.262
ACAAAGUCGCCUUCUUCCGTT against Adgrf3 | inactive: -0.706
AGAACGGAACCAUAGGGAATT against Cmc2 | inactive: -0.897
GGGUCUCUUCAGUUUUUUATT against Srsf9 | inactive: 0.311
GCGGUAUGGAAAAAGAGAUTT against Pyy | inactive: -0.525
GGCUCAGAAGAAAAUGGAUTT against Kcnk4 | inactive: 0.166
GGUGACUACUACAGGAAACTT against Hps1 | active: 2.3
GGUUGGUCACCUAAUCCAGTT against Aldh2 | inactive: 0.523
GGGAUACCAGCUGAAUUACTT against Inhbe | inactive: -0.612
GGAUGUGACUAGAAUCAUCTT against Shpk | inactive: 0.625
GGUCAGUUGAGAUGUUUUUTT against Pag1 | inactive: 0.346
